Measured values: patent publication US20260028424A1 (GRANULAR THERAPEUTICS, published 2026)
Where a chain is given by its changes, count along the chain named. These are yes or no findings as the source states them, for the method shown. Some binding calls cover weakened binding; strength is not graded here. Values belong to the binder of their own block, whether it stands above or below them.

Sequences of proteins named here, by UniProt entry; tags and fusion partners are left off. A change or cut given only in a name is not applied to a line headed by its entry.
UniProt P10721: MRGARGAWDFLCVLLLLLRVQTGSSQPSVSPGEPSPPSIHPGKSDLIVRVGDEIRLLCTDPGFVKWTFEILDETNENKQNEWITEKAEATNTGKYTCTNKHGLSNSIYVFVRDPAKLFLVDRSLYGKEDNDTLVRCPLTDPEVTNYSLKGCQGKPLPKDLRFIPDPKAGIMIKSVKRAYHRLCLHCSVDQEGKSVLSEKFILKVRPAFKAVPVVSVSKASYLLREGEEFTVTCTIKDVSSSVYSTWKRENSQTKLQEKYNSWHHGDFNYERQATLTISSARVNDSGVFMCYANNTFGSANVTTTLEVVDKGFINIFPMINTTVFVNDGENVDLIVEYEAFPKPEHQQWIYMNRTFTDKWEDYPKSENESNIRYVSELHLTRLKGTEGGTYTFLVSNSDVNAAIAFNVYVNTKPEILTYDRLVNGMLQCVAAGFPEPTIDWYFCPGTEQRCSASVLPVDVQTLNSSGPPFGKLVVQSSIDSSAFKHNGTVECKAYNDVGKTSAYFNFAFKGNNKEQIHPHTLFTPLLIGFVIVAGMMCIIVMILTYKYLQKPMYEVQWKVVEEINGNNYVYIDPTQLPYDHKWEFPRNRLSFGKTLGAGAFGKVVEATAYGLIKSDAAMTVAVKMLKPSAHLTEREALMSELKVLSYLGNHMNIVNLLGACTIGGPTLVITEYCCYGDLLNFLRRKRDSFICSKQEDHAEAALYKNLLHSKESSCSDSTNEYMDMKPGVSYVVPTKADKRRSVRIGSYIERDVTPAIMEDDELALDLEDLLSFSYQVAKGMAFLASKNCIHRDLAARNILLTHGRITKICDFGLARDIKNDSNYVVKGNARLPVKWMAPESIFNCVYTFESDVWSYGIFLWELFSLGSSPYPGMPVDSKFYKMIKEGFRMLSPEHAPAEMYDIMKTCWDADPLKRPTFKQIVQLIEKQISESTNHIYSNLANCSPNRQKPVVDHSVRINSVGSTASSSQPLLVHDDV

Key:
cyno c-Kit (SPR) (cyno) = test: SPR, single-cycle kinetics
[1] = molecular target: c-Kit (antigen of the binding assay of FIG. 9A) (Homo sapiens (Human)) (UniProt P10721); test: plate binding assay on Human c-KIT, A450-A630 (ratio corrected)

- binding (cyno c-Kit (SPR) (cyno)): binds
B1: MH1/F6.12 bispecific (parental, before pI engineering) (bispecific antibody, V domains shown)
VH 1: QVQLVQSGAEVKKPGASVKVSCKASGYTFTDYYMNWVRQAPGQGLEWMGRIYPGSGNTYYAQKFQGRVTMTRDTSTSTVYMELSSLRSEDTAVYYCARGVYYYDYWGQGTLVTVSS
VH 2: EVQLVQSGAEVKKPGESLKISCKGSGYRFASNWIGWVRQMPGKGLEWMGEIYPGDSNTRYSPSFQGQVTISADKSISTAYLQWSSLKASDTAMYYCARKDYYYGIMDVWGQGTTVTVSS
VL: DIQMTQSPSSLSASVGDRVTITCRASQGIRTNLAWFQQKPGKAPKSLIYAASSLQSGVPSRFSGSGSGTDFTLTISSLQPEDFATYYCQQYNSYPRTFGGGTKVEIK
notes: Knob-in-hole IgG1null bispecific with human Ckappa; also called parental bispecific MH1/F6.12

- binding (cyno c-Kit (SPR) (cyno)): binds
B2: MH1_C/F6.12_D bispecific (pI-engineered) (bispecific antibody, V domains shown)
VH 1: B1 VH 1 with K13E, K63N
VH 2: B1 VH 2 with E1Q, S85R
VL: B1 VL
notes: Knob-in-hole IgG1null bispecific with human Ckappa

- binding [1]: binds
B3: F6/MH1 common light chain bispecific (anti-CD203c F6 x anti-c-Kit MH1) (bispecific antibody, V domains shown)
VH 1: B1 VH 1
VH 2: B1 VH 2 with G104Y, I105A
VL: B1 VL
notes: Knob-in-hole IgG1null bispecific with human Ckappa; also called F6/MH1 bispecific molecule
